Test results: publication PMC5931981, “Identification of a pyrophosphate-dependent kinase and its donor selectivity determinants” (Nature Communications, 2018)
No constants are given. Whether binding was seen depends on the method and setting.

Target: TM0415 from the hyperthermophilic bacterium Thermotoga maritima (Thermotoga maritima) (UniProt Q9WYP6)
Experiment: SEC; size exclusion chromatography of TM0415 in solution (Supplementary Fig. 3b); both purified

B1: TM0415 from the hyperthermophilic bacterium Thermotoga maritima (enzyme, UniProt Q9WYP6 1-286)
chain: MITFIGHVSKDVNVVDGKREIAYGGGVVMGAITSSLLGVKTKVITKCTREDVSKFSFLRDNGVEVVFLKSPRTTSIENRYGSDPDTRESFLISAADPFTESDLAFIEGEAVHINPLWYGEFPEDLIPVLRRKVMFLSADAQGFVRVPENEKLVYRDWEMKEKYLKYLDLFKVDSREAETLTGTNDLRESCRIIRSFGAKIILATHASGVIVFDGNFYEASFRSWSLEGRTGRGDTCTAAFLVGFVFKKMSIEKATKFAAAVTSVKMRHPGPLRREDLEAISGDQYF
For B1, the binding was “no binding”.
